Earlier results as cited in patent publication US10905654B2, “Compositions of bakuchiol and methods of making the same” (Unigen, Inc., priority 2005, dated 2021).
Some results were stated once for a whole list of compounds, not compound by compound. Some ranges recur; such a range may be that of the whole group of compounds.

Test system: COX-1 versus COX-2
Conditions: COX-2 selective over COX-1; cited from earlier work

SMILES	potency against COX-2 (selective COX-2 inhibitors)
Cc1onc(-c2ccccc2)c1-c1ccc(S(N)(=O)=O)cc1 [Bextra®]	50-200 times
Cc1ccc(-c2cc(C(F)(F)F)nn2-c2ccc(S(N)(=O)=O)cc2)cc1 [Celebrex®]	50-200 times
CS(=O)(=O)c1ccc(C2=C(c3ccccc3)C(=O)OC2)cc1 [Vioxx®]	50-200 times
